From patent publication US8329865B2, “Antimicrobially active peptides” (priority 2001, dated 2012)
Several values for one entry are separate records, joined by “and”; a condition that tells them apart may be missing. Equal entries are not always repeated. Not every detail of the peptide structures is certain; ends, links or a residue may be inferred. Some results were stated once for a whole list of compounds, not compound by compound. No end group written: not given here.

What was measured:
[1] = CF release assay with unilamellar liposomes; conditions: even after the addition of 10 μM peptide; relative to Triton X-100
Method: FIG. 9. Effect of DCD-derived peptides on membrane permeability. (A) Outer membrane permeability measured by peptide-mediated NPN uptake in E. coli ML-35p. E. coli cells were incubated with 10 μM NPN in the presence of various concentrations of DCD peptides in 5 mM sodium HEPES buffer (pH 7.4). Enhanced uptake due to membrane permeability was measured by an increase in fluorescence intensity (Ex350 and Em460) caused by partition of NPN into the hydrophobic interior of the outer membrane. At time point 0 min, intact E. coli ML-35p cells were added to the peptides. The results are expressed as NPN uptake factor of fluorescence in arbitrary units. All analyses were performed in triplicates. (B) Inner membrane permeability measured as the influx of ONPG in E. coli ML-35p after the addition of DCD peptides. Stationary-growth-phase E. coli were incubated for 3 h at room temperature in 10 mM NaP (pH 7.0) with 1.67 mM ONPG. The release of ONP by cytoplasmic β-galactosidase was spectrophotometrically monitored at 420 nm. In the reference cuvette, peptides were placed in solvent. All samples were analyzed in triplicates. […] Release was determined 4 min after peptide addition at concentrations of 1 to 10 μM. […] Reaction progress was expressed as the percentage of CF released relative to the total fluorescence released after the addition of Triton X-100 solution at the end of each experiment.
Preparation of liposomes and CF release assay. […] The liposome concentration was determined by phosphorous analysis (Rouser, G. et al. 1970 Lipids 5:494-496). […]
The release of CF from liposomes was measured by monitoring the increase in fluorescence intensity at 515 nm with excitationat 492 nm in a RF-5301 PC Spectrofluorophotometer (Schimadzu). […] CF release was expressed as the percentage of CF released relative to the fluorescence released after addition of 20 μl of a 20% Triton X-100 solution at the end of each experiment.
Preparation of unilamellar vesicles for carboxyfluorescein efflux experiments. […] Fluorescence measurements were recorded using a RF-5301 spectrophotometer (Shimadzu). […]

[2] = SDS-PAGE and Western blot analysis of oligomerization; format: physicochemical; conditions: 4 μg synthetic peptide dissolved in water, anti-DCD antibody
[3] = CD spectroscopy, secondary structure; format: physicochemical
Method: CD) spectroscopy. Circular dichroism (CD) measurements were performed with a Jasco J-720 CD spectrapolarimeter (Jasco, Tokyo, Japan) to determine the secondary structure of DCD-derived peptides. The data are reported as the average of three to four scans at 50 nm/min with a 1-nm step resolution. The CD spectra of the peptides (50 μM) in 10 mM sodium phosphate buffer (pH 7.0) with different amounts of NaCl (10, 100, and 150 mM) in 0 to 60% (vol/vol) trifluoroethanol (TFE) and in the presence of artificial phospholipid vesicles such as DOPC and DOPC-DOPG (1:1 molar ratio) were recorded at room temperature in the 180- to 260-nm wavelength range. The data are reported as the mean residue ellipticity in units of degrees cm^2 dmol^−1 and plotted versus wavelength. The secondary structural predictions for peptides were carried out by Jasco secondary structure software.

[4] = tested on: S. aureus (ATCC 25923); assay: TEM and IEM of peptide-treated bacteria; format: cell-based, Staphylococcus aureus; conditions: 100 μg/ml for 4 h
Method: FIG. 10. Morphology of peptide-treated S. aureus. […] As a negative control cells were incubated in buffer without peptide. For the immune-EM, bacteria were incubated with a polyclonal antiserum to DCD-1, and the reactivity was detected by immunogold labeling. Seen is the binding of DCD to the bacterial surface.
TEM and IEM. Liquid cultures of S. aureus (ATCC 25923) cells grown up to mid-logarithmic phase were washed twice in 10 mM sodium phosphate buffer (pH 7.4). […] In parallel, antimicrobial assays with both peptides were performed which confirmed the antibacterial activity of both peptides. For immune electron microscopy (IEM), cells were fixed in PLP and centrifuged, and the resulting bacterial pellet was embedded in 3.5% agarose at 37° C. and cooled on ice. Small parts of agarose blocks were embedded in Lowicryl (Polysciences, Eppelheim, Germany). Ultrathin sections (50 nm) were mounted on Formvar-coated nickel grids and incubated with rabbit anti-DCD, followed by 10-nm gold-conjugated goat anti-rabbit immunoglobulin G (Auroprobe EM; Amersham, Freiburg, Germany). In control samples the primary antibody was omitted. Samples were examined by using a Zeiss 109 transmission electron microscope (Zeiss, Oberkochen, Germany). For transmission EM (TEM) bacterial pellets were fixed in Karnovsky's fixative, postfixed in 1% osmium tetroxide, and embedded in Epon.

[5] = tested on: Escherichia coli, Staphylococcus aureus, Enterococcus faecalis and Candida albicans; assay: CFU test (colony-forming units), Example 4; format: cell-based; conditions: sodium phosphate buffer, 37° C., 3 h, 4 h or overnight
Method: The antimicrobial effect of said peptides was carried out by a CFU test (test for colony-forming units) as described for the defensins by Valore et al., “Human Beta-Defensin-1: An Antimicrobial Peptide of Urogenital Tissues”, J Clin Invest 101, 1633-1642 (1998).
The test of the novel peptides was carried out with Escherichia coli, Staphylococcus aureus, Enterococcus faecalis and Candida albicans. E. coli was incubated in LB medium, E. faecalis and S. aureus in Columbia medium (Difko, BD Heidelberg) and C. albicans in casein hydrolysate medium (Merck, Darmstadt). The amounts of bacteria and yeasts were determined by photometry. The bacterial strains were incubated to an optical density of […] at 600 nm and the yeast was incubated to an optical density of 0.4-0.6 at 450 nm. The amount of the organisms was determined by plating various dilutions as follows: an OD of 1 at 600 nm is equivalent to 8.2×10^9/ml for E. coli, 1.9×10^10/ml for S. aureus and 9.0×10^9/ml for E. faecalis, and an OD of 1 at […] is equivalent to 1.4×10^8/ml for C. albicans. […]
The cells were incubated with various amounts of the peptides in 200 μl of sodium phosphate buffer at 37° C. for 3 h, 4 h or overnight (21-24 h). […] The plates were incubated at 37° C. overnight, and the number of colonies was counted. […]

[6] = DOPC-DOPG (1:1 molar ratio) liposomes

Sequence | CF leakage from liposomes made of DOPC and DOPC-DOPG [1] [%] | formation of SDS-stable dimers [2] | Secondary structure, Random coil ([3]; 10 mM NaP) [%] | Secondary structure, Turn ([3]; 10 mM NaP) [%] | Secondary structure, α-Helix ([3]; 10 mM NaP) [%] | Secondary structure, β-Sheet ([3]; 10 mM NaP) [%] | Secondary structure, Random coil ([3]; 10 mM NaP-10 mM NaCl) [%] | Secondary structure, Turn ([3]; 10 mM NaP-10 mM NaCl) [%] | Secondary structure, α-Helix ([3]; 10 mM NaP-10 mM NaCl) [%] | Secondary structure, β-Sheet ([3]; 10 mM NaP-10 mM NaCl) [%] | Secondary structure, Random coil ([3]; 10 mM NaP-150 mM NaCl) [%] | Secondary structure, Turn ([3]; 10 mM NaP-150 mM NaCl) [%] | Secondary structure, Random coil ([3]; 60% TFE) [%] | Secondary structure, Turn ([3]; 60% TFE) [%] | Secondary structure, β-Sheet ([3]; 60% TFE) [%] | Secondary structure, Random coil ([3]; dH2O) [%] | Secondary structure, Turn ([3]; dH2O) [%] | Secondary structure, α-Helix ([3]; dH2O) [%] | Secondary structure, β-Sheet ([3]; dH2O) [%] | Secondary structure, α-Helix ([3]; 60% TFE) | other results
LEKGLDGAKKAVGGLGKLGKDAVEDLESVGKGAVHDVKDVLDSVL [LEK-45] | < 13 | able to form SDS-stable dimers | 62.2 | 21.2 | 0.0 | 13.6 | 63.5 | 19.5 | 0.0 | 17.0 | 58.5 | 0.0 | 41.0 | 0.0 | 31.0 | 53.6 | 16.1 | 0.0 | 30.3 | – | Secondary structure, α-Helix ([3]; 10 mM NaP-150 mM NaCl): 0.0%; Secondary structure, β-Sheet ([3]; 10 mM NaP-150 mM NaCl): 41.5%
SSLLEKGLDGAKKAVGGLGKLGK [SSL-23] | < 13 | – | 57.7 | 18.4 | 0.0 | 23.8 | – | – | – | – | – | – | 49.2 | 4.9 | 40.8 | 47.0 | 14.8 | 0.0 | 38.2 | 14% and 14.1% | morphological changes of S. aureus (transmission EM) [4]: no signs of cell wall damage. Instead, we observed cellular disintegration; Secondary structure, Random coil ([3]; 80% TFE): 39.5%; Secondary structure, Turn ([3]; 80% TFE): 0.0%; Secondary structure, α-Helix ([3]; 80% TFE): 32.9%; Secondary structure, β-Sheet ([3]; 80% TFE): 27.6%; Secondary structure, Random coil ([3]; DOPC liposomes): 64.8%; Secondary structure, Turn ([3]; DOPC liposomes): 21.5%; Secondary structure, α-Helix ([3]; DOPC liposomes): 0.0%; Secondary structure, β-Sheet ([3]; DOPC liposomes): 13.7%; Secondary structure, Random coil [3, 6]: 44.8%; Secondary structure, Turn [3, 6]: 3.8%; Secondary structure, α-Helix [3, 6]: 2.2%; Secondary structure, β-Sheet [3, 6]: 49.2%
SSLLEKGLDGAKKAVGGLGKLGKDA [SSL-25] | – | – | – | – | – | – | – | – | – | – | – | – | 41.8 | 0.0 | 27.1 | 57.0 | 20.7 | 0.0 | 22.3 | 31% and 31.1% | –
SSLLEKGLDGAKKAVGGLGKLGKDAVEDL [SSL-29] | – | – | – | – | – | – | – | – | – | – | – | – | 41.7 | 0.0 | 46.2 | 55.4 | 20.3 | 0.0 | 24.3 | 12% and 12.2% | –
SSLLEKGLDGAKKAVGGLGKLGKDAVEDLESVGKGAVHDVKDVLDSVL [DCD-1L] | < 13 | able to form SDS-stable dimers | 62.0 | 20.5 | 0.0 | 17.5 | 61.4 | 19.4 | 0.0 | 19.1 | 67.9 | 0.0 | 38.3 | 0.0 | 27.2 | 54.9 | 16.4 | 0.0 | 28.8 | 34% and 34.5% | antimicrobial effect (percentage of killed cells) [5]: quantity-dependent antimicrobial effect; Secondary structure, α-Helix ([3]; 10 mM NaP-150 mM NaCl): 0.0%; Secondary structure, β-Sheet ([3]; 10 mM NaP-150 mM NaCl): 32.1%; Secondary structure, Random coil ([3]; DOPC liposomes): 55.0%; Secondary structure, Turn ([3]; DOPC liposomes): 9.8%; Secondary structure, α-Helix ([3]; DOPC liposomes): 0.0%; Secondary structure, β-Sheet ([3]; DOPC liposomes): 35.2%; Secondary structure, Random coil [3, 6]: 6.8%; Secondary structure, α-Helix [3, 6]: 0.0%; Secondary structure, β-Sheet [3, 6]: 27.8%
